Reference: patent US6455242B1, “Color photographic element containing speed improving compound” (Eastman Kodak Company, priority 1998, dated 2002)

Test: Multilayer film ML-B, stepped exposure, KODAK FLEXICOLOR (C-41) process
Conditions: for Speed of Neutral / Speed of G Only: check ML-B-1
[1] = Layer 9 at 0.082 mmol/m^2 (6.8 mmol/mol silver), dispersed in three times own weight of N,N-dibutyllauramide
[2] = Layer 9 at 0.082 mmol/m^2, dispersed in three times own weight of N,N-dibutyllauramide
[3] = Layer 9 at 0.082 mmol/m^2, dispersed in twice own weight of N,N-dibutyllauramide
[4] = Layer 9 at 0.082 mmol/m^2, added as water solutions

| SMILES | Speed of Neutral [1] | Granularity [2] | Speed of G Only [2] | other results |
| --- | --- | --- | --- | --- |
| CCCCCCCCCCCCNc1ncnc2nc[nH]c12 [AA, 6-dodecylaminopurine] | 0.13 stops | 20.3 ×10^3 | 0.17 stops |  |
| CCC(Oc1ccc(C(C)(C)CC)cc1C(C)(C)CC)C(=O)Nc1ncnc2[nH]cnc12 (centres unmarked) [AB] | 0.23 stops | 21.4 ×10^3 | 0.23 stops |  |
| CCCCCCCCCCCCOCCCCCCOc1ncnc2[nH]cnc12 [AC] | 0.27 stops | 21.5 ×10^3 | 0.27 stops |  |
| CCCCCCCCCCCCCCCCOC(=O)CCCSc1ncnc2[nH]cnc12 [AE] | 0.27 stops | 21.3 ×10^3 | 0.30 stops |  |
| CCCCCCCCCCCCCCCCOC(=O)CCCCCSc1ncnc2[nH]cnc12 [AF] | 0.30 stops | 21.1 ×10^3 | 0.33 stops |  |
| CCCCCCCCC(CCCCCC)COC(=O)CCCSc1ncnc2[nH]cnc12 (centres unmarked) [AH] | 0.23 stops | 18.9 ×10^3 | 0.23 stops |  |
| CCCCCCCCCCCCCCCCCCSc1nnc2nc(C)cc(O)n12 [AJ] | 0.10 stops | 19.9 ×10^3 | 0.13 stops |  |
| CCCCCCCCCCCCCCCCCCSc1nnc2nc(C(C)(C)C)cc(O)n12 [AK] | 0.17 stops | 17.7 ×10^3 | 0.17 stops |  |
| CCCCCCCCCCCCCCC(Sc1nc2nc(C)cc(O)n2n1)C(=O)NCCC (centres unmarked) [AL] | 0.16 stops and 0.17 stops | 18.3 ×10^3 and 18.1 ×10^3 | 0.16 stops and 0.20 stops |  |
| CCCCCCCCC(CCCCCC)COC(=O)C(C)Sc1nc2nc(C)cc(O)n2n1 (centres unmarked) [AM] | 0.20 stops | 17.9 ×10^3 | 0.23 stops |  |
| CCCCCCCCCCCCCCC(Sc1nc2nc(C)cc(O)n2n1)C(=O)OCC(CC)CCCC (centres unmarked) [AN] | 0.23 stops | 16.9 ×10^3 | 0.27 stops |  |
| CCCCCCCCCCCCCCC(Sc1nnc2nc(C)cc(O)n12)C(=O)NC(C)C (centres unmarked) [AS] | 0.20 stops | 17.8 ×10^3 | 0.20 stops |  |
| CCC(Oc1ccc(C(C)(C)CC)cc1C(C)(C)CC)C(=O)Nc1ccc2[nH]nnc2c1 (centres unmarked) [BB] |  |  |  | Granularity [3]: 16.9 ×10^3; Speed of G Only [3]: 0.33 stops; Speed of Neutral [3]: 0.33 stops |
| CCC(C)(C)c1ccc(OCCCCOC(=O)c2ccc3[nH]nnc3c2)c(C(C)(C)CC)c1 [BC] |  |  |  | Granularity [3]: 15.6 ×10^3; Speed of G Only [3]: 0.37 stops; Speed of Neutral [3]: 0.37 stops |
| CCCCC(Oc1ccc(C(C)(C)CC)cc1C(C)(C)CC)C(=O)Nc1ccc2[nH]nnc2c1 (centres unmarked) [BD] |  |  |  | Granularity [3]: 17.4 ×10^3; Speed of G Only [3]: 0.40 stops; Speed of Neutral [3]: 0.40 stops |
| CCCCCCCCCCCCCCCc1cccc(OC(CC)C(=O)Nc2ccc3[nH]nnc3c2)c1 (centres unmarked) [BF] |  |  |  | Granularity [3]: 15.7 ×10^3; Speed of G Only [3]: 0.37 stops; Speed of Neutral [3]: 0.33 stops |
| CCCCCCCCCCCCCCCCCCOc1ccc2[nH]nnc2c1 [BG] |  |  |  | Granularity [3]: 15.7 ×10^3; Speed of G Only [3]: 0.40 stops; Speed of Neutral [3]: 0.40 stops |
| CCCCCCCCCCCCCCCc1cccc(OC(CC)C(=O)Nc2cccc(-n3nnnc3S)c2)c1 (centres unmarked) [BH] |  |  |  | Granularity [3]: 17.7 ×10^3; Speed of G Only [3]: 0.10 stops; Speed of Neutral [3]: 0.07 stops |
| CCCCC(Oc1ccc(C(C)(C)CC)cc1C(C)(C)CC)c1nnc(S)o1 (centres unmarked) [BI] |  |  |  | Granularity [3]: 19.0 ×10^3; Speed of G Only [3]: 0.10 stops; Speed of Neutral [3]: 0.03 stops |
| CCCCC(Oc1ccc(C(C)(C)CC)cc1C(C)(C)CC)c1nnc(S)s1 (centres unmarked) [BJ] |  |  |  | Granularity [3]: 17.5 ×10^3; Speed of G Only [3]: 0.10 stops; Speed of Neutral [3]: 0.07 stops |
| CCCCCCCCCCCCCCOc1ccc(-c2nnn[nH]2)cc1 [BK] |  |  |  | Granularity [3]: 18.6 ×10^3; Speed of G Only [3]: 0.10 stops; Speed of Neutral [3]: 0.10 stops |

| SMILES | Speed of Neutral [1] | Granularity [2] | Speed of G Only [2] | other results |
| --- | --- | --- | --- | --- |
| CCCCCCCCCCCCCCCCCC(=O)OCc1n[nH]nc1-c1ccccc1 [BM] |  |  |  | Granularity [3]: 18.1 ×10^3; Speed of G Only [3]: 0.23 stops; Speed of Neutral [3]: 0.23 stops |
| CCCCCCCCCCCCCCOc1nccc2[nH]cnc12 [BN] | 0.00 stops | 16.8 ×10^3 | 0.17 stops |  |
| Oc1ncnc2[nH]cnc12 [CC-2, reference compound] | 0.00 stops | 20.6 ×10^3 | 0.00 stops |  |
| Nc1ncnc2[nH]cnc12 [CC-3, reference compound] | −0.10 stops | 20.0 ×10^3 | −0.10 stops |  |
| CC(=O)Nc1ncnc2[nH]cnc12 [CC-4, reference compound] | −0.10 stops | 20.0 ×10^3 | −0.10 stops |  |
| Sc1ncnc2[nH]cnc12 [CC-5, reference compound] | −1.57 stops | 25.6 ×10^3 | −1.10 stops |  |
| CCCCCCCCCCCCOc1ncnc2[nH]cnc12 [CC-6, reference compound] | 0.07 stops | 24.3 ×10^3 | 0.03 stops |  |
| CCCCCCCCCCCCSc1nc2ccccc2[nH]1 [CC-7, reference compound] | 0.03 stops | 17.8 ×10^3 | 0.03 stops |  |
| CCCCCCCCCCCCCCCc1ccc2[nH]cnc2c1 [CC-8, reference compound] | 0.03 stops | 19.3 ×10^3 | 0.03 stops |  |
| CCCCCCCCCCCCc1ccc2[nH]cnc2c1 [CC-9, reference compound] | 0.03 stops | 18.6 ×10^3 | −0.03 stops |  |
| CCC(C)(C)c1ccc(OCCCCNC(=O)c2ccc3[nH]nnc3c2)c(C(C)(C)CC)c1 [CC-10, reference compound] | 0.06 stops | 18.2 ×10^3 | 0.03 stops |  |
| CCCCCCCCCCCCCCS(=O)(=O)c1ncnc2[nH]cnc12 [CC-11, reference compound] | 0.03 stops | 22.1 ×10^3 | 0.03 stops |  |
| CCCC(Sc1nc2nc(C)cc(O)n2n1)C(=O)OCC (centres unmarked) [CC-12, reference compound] | 0.03 stops | 18.3 ×10^3 | 0.10 stops |  |
| Cc1cc(O)n2ncnc2n1 [CC-13, reference compound] |  |  |  | Granularity [4]: 17.3 ×10^3; Speed of G Only [4]: −0.07 stops; Speed of Neutral [4]: −0.10 stops |
| Cc1nc2ncnn2c(O)c1Br [CC-14, reference compound] |  |  |  | Granularity [4]: 17.8 ×10^3; Speed of G Only [4]: 0.00 stops; Speed of Neutral [4]: 0.00 stops |
| CSc1nc2nc(C)cc(O)n2n1 [CC-15, reference compound] |  |  |  | Granularity [4]: 17.3 ×10^3; Speed of G Only [4]: 0.00 stops; Speed of Neutral [4]: −0.03 stops |
| CCCCCCCCc1cc(O)n2ncnc2n1 [CC-16, reference compound] | −0.30 stops | 26.2 ×10^3 | −0.23 stops |  |
| CCCCCCCCCc1nc2nc(C)cc(O)n2n1 [CC-17, reference compound] | 0.10 stops | 27.2 ×10^3 | 0.10 stops |  |
| CCCCCCCCSc1nc2nc(C)cc(O)n2n1 [CC-18, reference compound] | −0.27 stops |  | −0.20 stops |  |
| CCC(C)(C)c1ccc(OCC(=O)Nc2ccc3[nH]nnc3c2)c(C(C)(C)CC)c1 [CC-19, reference compound] |  |  |  | Granularity [3]: 18.9 ×10^3; Speed of G Only [3]: −0.10 stops; Speed of Neutral [3]: 0.03 stops |
| CCCCCCCCCCCCOc1ccc2[nH]nnc2c1 [CC-20, reference compound] |  |  |  | Granularity [3]: 17.7 ×10^3; Speed of G Only [3]: 0.06 stops; Speed of Neutral [3]: 0.03 stops |

Values joined by “and” are separate entries in the source; they are usually repeats but may differ in a detail not shown here. Equal entries are not always repeated.
